This passage reports binding signal results from PMC7819943, “Rice protein-binding microarrays: a tool to detect cis-acting elements near promoter regions in rice”.

Sequences of proteins named here, by UniProt entry; tags and fusion partners are left off.
UniProt Q0JBA9, entry or part of it: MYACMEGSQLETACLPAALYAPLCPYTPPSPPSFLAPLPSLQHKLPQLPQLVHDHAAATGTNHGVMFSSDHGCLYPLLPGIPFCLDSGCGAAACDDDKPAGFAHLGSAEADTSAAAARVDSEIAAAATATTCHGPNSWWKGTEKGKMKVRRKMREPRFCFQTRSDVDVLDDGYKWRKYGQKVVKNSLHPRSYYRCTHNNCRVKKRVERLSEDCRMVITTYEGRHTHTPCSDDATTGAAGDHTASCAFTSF

This is one part of the list.

In this experiment the target is OsWRKY34 (Oryza sativa, UniProt Q0JBA9 1-250). The experiment can be described thus: protein-binding microarray (RPBM); PBS, 2% BSA, 51.3 ng/ul salmon testes DNA, 50 uM zinc acetate, 200 nM TF, 25 C, 1 h; high values mean tight binding. To be noted: protein: recombinant; tags: N-terminal polyhistidine and DsRed monomer fusion (pET32a); label: CyDye5-dUTP incorporated in the synthesized complementary strand; 3' TTTTT single-stranded linker to array surface; dsDNA, one strand shown. The essentials:
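Using Ni–NTA, transcription factors fused N-terminally to polyhistidine and DsRed were purified after expression in E. coli BL21-CodonPlus. These were incubated at 200 nM with a blocked, double-stranded custom Agilent array for 1 h at 25 °C in a buffer containing 50 µM zinc acetate, and the array was washed. The binding signal is per-feature fluorescence intensity (arbitrary units) on an Axon 4000B scanner.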
“GTCTCTCTTCTCTCTCTCTCTCTCTCTCTCTCTCTCGTCTCGGAGTCACCTAGTGCAG”: the binding signal is 8040 fluorescence intensity (a.u.).

In the case of “GTAGTTCGAGTTTAAATTTTTTTGTGGTTGGTTGTATCGTCGGAGTCACCTAGTGCAG”, the binding signal is 8720 fluorescence intensity (a.u.).

Regarding “CTGTTACTCTATGTGGTTTGAGCAGTGTCGTCTGTTCATACGGAGTCACCTAGTGCAG”, the binding signal is 12900 fluorescence intensity (a.u.).

For “CTCTAGCCTCTCGCGAACCTCTCGATCTTCTCGCCGCCATCGGAGTCACCTAGTGCAG”, the binding signal is 10100 fluorescence intensity (a.u.).

For the sequence “GATTCGGTAGTGGGCCTAGGCCTGGGCATGGAGGGTGGGCCGGAGTCACCTAGTGCAG”, the binding signal was 10900 fluorescence intensity (a.u.).

On to “TCCTGTCTATGTTTCTCTCTCTCCATAGCACTTACTCTTTCGGAGTCACCTAGTGCAG”, for which the binding signal was 13400 fluorescence intensity (a.u.).

Take “AAACACATTCACATTCTCTCTCTCTCTCTCTCTCTCTCCTCGGAGTCACCTAGTGCAG”: the binding signal was 8420 fluorescence intensity (a.u.).

With “AATATCCATTCTCACGAGCTGTTTGTTGTAGCTTTCTGTACGGAGTCACCTAGTGCAG”, the binding signal is 11400 fluorescence intensity (a.u.).

Regarding “GATATAATGCGGTCAGAGTTCAGGACTTGACCAAGTTCGTCGGAGTCACCTAGTGCAG”, the binding signal was 8330 fluorescence intensity (a.u.).

“ATCTTCTATTCACGGCTTGCCATCTGTGCACTGTAATTTTCGGAGTCACCTAGTGCAG”: the binding signal was 9850 fluorescence intensity (a.u.).

Consider “TTCTTTTTTGGACGCCATCATCATCAACATTGCCGCTGCACGGAGTCACCTAGTGCAG”, for which the binding signal was 11600 fluorescence intensity (a.u.).

“AGTCCCACCACGCCACGAGAAATTTCTACGCCCATGTCAGCGGAGTCACCTAGTGCAG”: the binding signal is 8030 fluorescence intensity (a.u.).

Turning to “CTCCGCGATCACCAAATCCGCCGTCGCACCGTCTCCACTCCGGAGTCACCTAGTGCAG”, the binding signal is 9870 fluorescence intensity (a.u.).

As for “ACCCAGTGACGTGGCCCTCATAACCTTCGCCCATAAATACCGGAGTCACCTAGTGCAG”, the binding signal is 8400 fluorescence intensity (a.u.).

Take “CTCTATAGCTGTTGTTAGAGTTGTTATTCCTTTCACTTGTCGGAGTCACCTAGTGCAG”: the binding signal is 8130 fluorescence intensity (a.u.).

With “CTGTTCCATTTTATCACTTCTTTCTGCACTTCTTTTCTTTCGGAGTCACCTAGTGCAG”, the binding signal is 15800 fluorescence intensity (a.u.).

With “TGTAGTCCGCTTCTTTTCTCTCCTTATTTATCTTCTTAAACGGAGTCACCTAGTGCAG”, the binding signal was 8580 fluorescence intensity (a.u.).

With “GGTGGGGTTCGGTTTCGTGCCGCCATTTTCCCCAATTTGGCGGAGTCACCTAGTGCAG”, the binding signal was 8870 fluorescence intensity (a.u.).

Take “AGAGGGAGTATTATGTTTATGCTTTTAATTTTTCACTTTGCGGAGTCACCTAGTGCAG”: the binding signal was 9150 fluorescence intensity (a.u.).

Regarding “CTACGTTTCTGCTTCCTTCAGTTTGTGCTGTCGTATTTATCGGAGTCACCTAGTGCAG”, the binding signal was 12800 fluorescence intensity (a.u.).

On to “GTATGTCTATCTTCTTTCGTTTTTTGACATTTACATATTTCGGAGTCACCTAGTGCAG”, for which the binding signal was 11800 fluorescence intensity (a.u.).

Take “GGCACGGTTTGAACGCATTACCCATTCCCCGTTTGACTTCCGGAGTCACCTAGTGCAG”: the binding signal was 12800 fluorescence intensity (a.u.).

On to “GGACGGACGAAACAGCGTGACATTACATTTTTTTCTCTCTCGGAGTCACCTAGTGCAG”, for which the binding signal is 8100 fluorescence intensity (a.u.).

For the sequence “ATGAAACTTGTTTGGTGTAGTAGATGTTGCTAAATTTTTCCGGAGTCACCTAGTGCAG”, the binding signal was 8630 fluorescence intensity (a.u.).

For the sequence “AGAAACGTACTCACTCTTGCCTGCATCGATCCTTGAGTTTCGGAGTCACCTAGTGCAG”, the binding signal was 9930 fluorescence intensity (a.u.).

Turning to “TTCTCATACCTTTTTCAATCTACTCCCTCTGGCTACATAACGGAGTCACCTAGTGCAG”, the binding signal was 8380 fluorescence intensity (a.u.).

As to “TTCCTACGATTTTCTAATTTTTCCCATATATTTCTCATATCGGAGTCACCTAGTGCAG”, the binding signal is 8250 fluorescence intensity (a.u.).

As for “GCGCACAAACAAAGCCGAATTAACACTCACGCTAAAACGTCGGAGTCACCTAGTGCAG”, the binding signal was 11000 fluorescence intensity (a.u.).

Regarding “CCCGTTGGCGATTGCGATGCTCCAAGTTGGTTACAATGTACGGAGTCACCTAGTGCAG”, the binding signal is 8090 fluorescence intensity (a.u.).

Take “CCACCGGCGGGCCCCACCATCTTGACTCCTCTCTGTGATCCGGAGTCACCTAGTGCAG”: the binding signal was 8610 fluorescence intensity (a.u.).

As for “ACCCACCATGCCACCCCACTCCTTCTTTAAACTTGTAAACCGGAGTCACCTAGTGCAG”, the binding signal is 9480 fluorescence intensity (a.u.).

With “GATTATACTGTATTTAATTGCGAGGAATGGTCTCTTTCAACGGAGTCACCTAGTGCAG”, the binding signal was 10500 fluorescence intensity (a.u.).

Take “GCGAGGATTCTTCGCCGACTGCTTCGTGTCATCTCGTCTCCGGAGTCACCTAGTGCAG”: the binding signal was 9770 fluorescence intensity (a.u.).

On to “TCGTGCGGCCATTGGCCCCTCTTCCATTCCTGCTATTCTCCGGAGTCACCTAGTGCAG”, for which the binding signal is 9630 fluorescence intensity (a.u.).

For the sequence “CTTCGTTTTGTCAATCGCAATATTATTGCGTTCTCTTGTCCGGAGTCACCTAGTGCAG”, the binding signal was 8300 fluorescence intensity (a.u.).

As for “AAATTTAATTAATTATGTGTTAAACACTGCTTCGTTTTATCGGAGTCACCTAGTGCAG”, the binding signal is 8460 fluorescence intensity (a.u.).

Turning to “TGTGGGTTGGAGCGGGTGGCCTCTAGGGTTTAGTGCAGTACGGAGTCACCTAGTGCAG”, the binding signal is 10200 fluorescence intensity (a.u.).

For “CTCACATGTATGCACACTGTGATTTTTTTCCTTCCTCACTCGGAGTCACCTAGTGCAG”, the binding signal is 8700 fluorescence intensity (a.u.).

“CCAACAACAGTGGCCTAAATTGCATTTCATAATTATTTTACGGAGTCACCTAGTGCAG”: the binding signal is 8860 fluorescence intensity (a.u.).

For the sequence “GAAACTGTCATTCTCTTATAAGGTGCGCTAAAATTTAAATCGGAGTCACCTAGTGCAG”, the binding signal was 8820 fluorescence intensity (a.u.).

“GGTGTTGTGGATGTTCACCAGCTTTGGAGGGTTTGATTAGCGGAGTCACCTAGTGCAG”: the binding signal is 8360 fluorescence intensity (a.u.).

On to “CTGGAACTCGCATACTTTCAGCTCATTGGTATAAAATTTCCGGAGTCACCTAGTGCAG”, for which the binding signal was 10400 fluorescence intensity (a.u.).
